Here are results for ten sequences from patent US20110172295.

The chains behind the UniProt entries cited, without tags or fusion partners. Residues count along the entry.
UniProt Q9CXY6, 2-390: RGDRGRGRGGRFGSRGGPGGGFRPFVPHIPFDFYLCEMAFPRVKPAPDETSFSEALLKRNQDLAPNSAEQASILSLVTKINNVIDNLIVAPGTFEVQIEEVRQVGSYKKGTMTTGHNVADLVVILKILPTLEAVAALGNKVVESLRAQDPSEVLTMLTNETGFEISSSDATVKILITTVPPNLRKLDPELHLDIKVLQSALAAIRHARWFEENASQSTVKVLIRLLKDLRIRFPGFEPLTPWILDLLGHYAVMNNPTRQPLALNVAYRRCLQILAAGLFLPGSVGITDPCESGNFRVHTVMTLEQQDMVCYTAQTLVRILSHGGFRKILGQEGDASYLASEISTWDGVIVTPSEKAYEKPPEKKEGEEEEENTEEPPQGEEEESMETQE

Data set [1] concerns the target T1, Lin-28 (endogenous, P19 nuclear extract) (Mus musculus) (UniProt Q8K3Y3).
T1 sequence (looked up, limits assumed): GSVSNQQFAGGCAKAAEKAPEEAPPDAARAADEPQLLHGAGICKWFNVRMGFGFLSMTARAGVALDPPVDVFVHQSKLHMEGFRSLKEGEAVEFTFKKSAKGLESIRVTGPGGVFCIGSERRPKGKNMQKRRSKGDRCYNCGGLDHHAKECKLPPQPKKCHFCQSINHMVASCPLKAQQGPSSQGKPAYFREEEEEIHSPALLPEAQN
As to the kind of experiment: competition with a labelled probe. To be noted: protein in an extract, letters built from the parent sequence and the stated change.

Data set [2] has as its target T2, Lin-28 (recombinant, E. coli) (Mus musculus) (UniProt Q8K3Y3).
T2 sequence (looked up): T1 sequence (looked up, limits assumed)
The data set can be described thus: inhibition of the protein. The note with it: purified recombinant protein, protein details: 6xHis N-terminal.

Data set [3] deals with T1, Lin-28 (endogenous, P19 nuclear extract) (Mus musculus). As to the kind of experiment: pull-down. To be noted: protein in an extract, letters built from the parent sequence and the stated change.
The target in data set [4] is T3, Lin-28B (endogenous, P19 nuclear extract) (Mus musculus) (UniProt Q45KJ6).
T3 sequence (looked up, limits assumed): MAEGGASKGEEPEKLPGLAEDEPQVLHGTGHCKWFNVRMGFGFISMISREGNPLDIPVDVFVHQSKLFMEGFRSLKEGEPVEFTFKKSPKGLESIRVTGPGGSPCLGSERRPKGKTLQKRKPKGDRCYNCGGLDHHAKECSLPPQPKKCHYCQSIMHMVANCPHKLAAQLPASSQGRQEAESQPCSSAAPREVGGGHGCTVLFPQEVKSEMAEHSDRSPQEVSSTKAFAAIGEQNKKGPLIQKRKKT
The data set can be described thus: pull-down. The note with it: protein in an extract, letters built from the parent sequence and the stated change.

Data set [5] deals with T1, Lin-28 (endogenous, P19 nuclear extract) (Mus musculus). As to the kind of experiment: binding assay. To be noted: UV crosslink and Lin-28 IP, protein in an extract, label: 32P.
A further data set addresses NF-45 (Mus musculus) (UniProt Q9CXY6). The data set can be described thus: inhibition of the protein. The note with it: control protein, no effect on Drosha processing; purified recombinant protein; protein details: 6xHis N-terminal; label: 32P internal.
The target in data set [6] is T4, Lin-28 (recombinant, HEK-293) (UniProt Q8K3Y3).
T4 sequence (looked up, limits assumed): T1 sequence (looked up, limits assumed)
The data set can be described thus: inhibition of the protein. The note with it: add-back at 100 ng/ul to Lin-28-immunodepleted P19 extract inhibits Drosha processing; purified recombinant protein; protein details: Flag N-terminal; label: 32P internal.

Where [7] appears, read: 2'-OMe, 5' spacer18 x2 [1-17 2'-OMe (N=2'-OMe-A at 1,3,4,7,10,12), 5' spacer18 x2 left out], random control capture probe, label: 5' biotin.
Where [8] appears, read: fully 2'-OMe, 3' spacer18 [1-30 2'-OMe (N=2'-OMe-A at 3,8,12,21,23,24,27), 3' spacer18 left out], streptavidin pulldown, MALDI-TOF identification, buffer D + 0.2% Triton, 25 C, label: 3' biotin.

For part of these data: Negatives hold for the conditions tested. For part of these data: Tags and fusion partners may be left off the protein sequences shown. For part of these data: At least one result comes from cells or an extract, where the contact may be indirect. For part of these data: The exact form of at least one protein or probe is not confirmed.

As for “ACCAACAGGCCGGGACAAGUGCAAUAAC [Non-specific 2'-O-methyl competitor]”, the binding result in data set [1] (fully 2'-OMe [1-28 2'-OMe (N=2'-OMe-A at 1,4,5,7,15,17,18,23,24,26,27)]) is “no binding”. For “AGAGACUUAGGCACAAUCUUUCAAGAGAAGAUUGUGCCUAAGUCUCUUU [PLK-1 miRNA precursor with control loop]”, the functional effect result in data set [2] (Dicer processing not blocked at identical Lin-28 concentrations, expression host not stated for this assay, label: 32P end, variant of PLK-1 miRNA precursor with Let-7a2 loop) is “not active”. Take “AGAGACUUAGGCACAAUCUUUUAGAAUUACAUCAAGGGAGAUAAAGAUUGUGCCUAAGUCUCUUU [PLK-1 miRNA precursor with Let-7a2 loop]”: in data set [2] (blocks Dicer processing in HeLa cytoplasmic extract, 1-100 ng/ul, 500 uM ATP, 37 C, expression host not stated for this assay, label: 32P end), the functional effect entry is “active”.

As for “AUAAGUAUGAUAUUGUC [non-specific control capture oligo]”, the binding result in data set [3] (setting [7]) and in data set [4] (setting [7]) was “no binding” each time. Regarding “GGGAUAGUGCAGGUAGUGUUUAGUUAUCUACUGCAUUAUGAG [hsa-miR-20a stem-loop RNA]”, the binding result in data set [5] (control probe not recovered) is given as “no binding”. “GGGGGUUGCAUAGUUUUAGGGCAGGGAUUUUGCCCACAAGGAGGUAACUAUACGACCUG [hsa-let-7d stem-loop RNA]”: the binding result in data set [5] (buffer D, 25 C, yeast tRNA) is “binds”.

With “UCCGCUAGCCUAGCUACUACCAGGUGAGUGGAGAUCUAUUGUGACCAGUCAGAAUAAUGUCAAAGUGCUUACAGUGCAGGUAGUGAUAUGUGCAUCUACUGCAGUGAAGGCACUUGUAGCAUUAUGGUGACAGCUGCCUCGCUCGAGGUUUAAACGAAUUCAGGGUUUCCUUGACAAUAUCAUACUUAU [pri-miR-17 transcript]”, the functional effect result in data set [2] (no effect on Drosha processing in HeLa nuclear extract, label: 32P internal) was “not active”; with NF-45 (Mus musculus), “not active”.

As to “UCCGCUAGCCUAGCUACUACCAGGUGAGUGGAGAUCUCGUUUCCUUUUGCCUGAUUCCAGGCUGAGGUAGUCGUUUGUACAGUUUGAGGGUCUAUGAUACCACCCGGUACAGGAGAUAACUGUACAGGCAACUGCCUUGCCAGGAACAGCGCGCCAGCUGCCCUCGAGGUUUAAACGAAUUCAGGGUUUCCUUGACAAUAUCAUACUUAU [pri-Let-7g transcript]”, the functional effect entry in data set [2] (inhibits Drosha processing in HeLa nuclear extract, 1-100 ng/ul, 37 C, label: 32P internal) is “active”; in data set [6], “active”; with NF-45 (Mus musculus), “not active”. Take “UUAGGGCAGGGAUUUUGCCCACAAGGAGGU [Let-7d loop 2'-O-methyl capture probe]”: the binding result in data set [3] (setting [8]) and in data set [4] (setting [8]) was “binds” each time. Turning to “UUAGGGCAGGGAUUUUGCCCACAAGGAGGU [Let-7d loop 2'-O-methyl competitor]”, the binding result in data set [1] (fully 2'-OMe [1-30 2'-OMe (N=2'-OMe-A at 3,8,12,21,23,24,27)], competes let-7d crosslink to Lin-28, 12.5-1250 nM) is listed as “binds”.
